Source: US11529343B2, “Compositions and methods for identifying and treating dystonia disorders” (DUKE UNIVERSITY, priority 2015, dated 2022)
At least one compound was matched to its structure with a doubt left.

Test system: delta-E Torsin1a localization
Assay: Delta-E Torsin1a mislocalization assay (% cells with EGFP puncta, high-content imaging)
Assay type: cell-based, human
Conditions: dose response, delta-E cell line
Description: To limit variation in expression levels associated with random integration or transient expression, single copies of either WT or delta-E human TOR1A cDNAs with N-terminal EGFP fusions were inserted at the FRT site in Flp-In™ T-Rex™ 293 cells (Thermo Fisher Scientific #R780-07) via flippase recombinase-mediated cassette exchange according to the manufacturer's recommended protocols.
The cells were maintained at 37° C./5% CO2. All experiments were performed on cells with fewer than 5 passages.
Torsin1a expression was also controlled by tetracycline induction to avoid selective pressure modifying the cellular phenotypes. […] The mutant phenotype was measured as the percentage of cells with one or more EGFP puncta using automated high-content imaging analysis (see infra).
The image analysis algorithm was developed using the Cellomics ArrayScan V CompartmentAnalysisV2 protocol. Hoechst's nuclear staining (Ch1: excitation 350 nm; emission 461 nm) was used for focusing and for cell identification by nuclear size, shape, and intensity. […] Detected cells were gated according to nuclear area, length-to-width ratio, and perimeter-to-area ratio. For the purpose of analysis, cell bodies were defined by a radius of 10 μm from the outer edge of the defined nucleus. […] EGFP fluorescence (Ch2: excitation 488 nm; emission 509 nm) was used for puncta detection. […]

SMILES: C[C@@H]1C[C@H]2[C@@H]3CCC4=CC(=O)C=C[C@]4(C)[C@@]3(F)[C@@H](O)C[C@]2(C)[C@@]1(O)C(=O)CO [dexamethasone]
- effect on delta-E Torsin1a localization (cells with puncta), in words: neither the glucocorticoid receptor agonist dexamethasone (FIG. 2, panel h), or a small panel of additional compounds modulating glucocorticoid/mineralocorticoid receptor signaling significantly modified
